Values from PubChem BioAssay AID652259 (Drosophila RNAi Screening Center, 2013).
Screen: 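Knock-downs that push a Wingless-driven reporter up or down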 (primary screen). System: Drosophila clone 8 imaginal disc epithelial cells. Reagent: long dsRNA against Drosophila genes. Treatment: pathway stimulated by co-transfected Wingless expression plasmid. Read-out: 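Dual luciferase reads per well after Wingless plasmid stimulation: reporter firefly light and Renilla control light; activity is firefly divided by Renilla, a ratio not deposited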. Direction: firefly reporter light: higher = more Wg reporter light, before normalisation; Renilla control light: higher = more transfected or surviving cells. Rule for the call: 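Strong candidates differ from their plate mean by at least two out of four per-plate statistical tests; weak candidates meet just one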. Calls: active = candidate regulator (raises or lowers reporter); inactive = not a candidate.
The deposit covers about 22,000 reagents; below is an unselected part of those that have a named target and a result. In the full data, 233 (1.1%) got an active call. 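Light values are raw, unnormalised plate reads; the ratio scores behind the reporter calls were not deposited.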 Unmarked entries are inactive. The numbers tell different reagents against one gene apart. Names joined by + are all predicted targets of the reagent. Not given: the amount of reagent, the time to read-out, the dose of the treatment.

The opening 9 entries, to show the layout:
| Target gene | reagent | firefly reporter light, replicate 1 | firefly reporter light, replicate 2 | Renilla control light, replicate 1 | Renilla control light, replicate 2 |
| --- | --- | --- | --- | --- | --- |
| CG12594 | 1 | 23765 | – | 6573 | – |
| disp | 1 | 15616 | – | 3120 | – |
| Mkrn1 | 1 | 15248 | 9.46e5 | 6672 | 4.39e5 |
| CG13639 | 1 | 26667 | – | 22890 | – |
| CG32640 + CG32641 | 1 | 6.39e5 | 5.69e5 | 58225 | 100 |
| Spf30 | 1 | 11994 | – | 4439 | – |
| Ork1 | 1 | 3094 | 5701 | 795 | 2240 |
| TrxT | 1 | 7.84e5 | 6.98e5 | 3.87e5 | 3.63e5 |
| alka | 1 | 3491 | 8203 | 793 | 2440 |

The list itself, from the start:
| Target gene | reagent | firefly reporter light, replicate 1 | firefly reporter light, replicate 2 | Renilla control light, replicate 1 | Renilla control light, replicate 2 |
| --- | --- | --- | --- | --- | --- |
| CG12594 | 1 | 23765 | – | 6573 | – |
| disp | 1 | 15616 | – | 3120 | – |
| Mkrn1 | 1 | 15248 | 9.46e5 | 6672 | 4.39e5 |
| CG13639 | 1 | 26667 | – | 22890 | – |
| CG32640 + CG32641 | 1 | 6.39e5 | 5.69e5 | 58225 | 100 |
| Spf30 | 1 | 11994 | – | 4439 | – |
| Ork1 | 1 | 3094 | 5701 | 795 | 2240 |
| TrxT | 1 | 7.84e5 | 6.98e5 | 3.87e5 | 3.63e5 |
| alka | 1 | 3491 | 8203 | 793 | 2440 |
| Cpr76Bd | 1 | 15767 | – | 5464 | – |
| Pxd | 1 | 8200 | – | 3130 | – |
| Mst57Db | 1 | 9.06e5 | 8.57e5 | 4.23e5 | 4.03e5 |
| qm | 1 | 2134 | 7780 | 1620 | 3721 |
| Nepl4 | 1 | 8320 | – | 4128 | – |
| Muc68Ca | 1 | 4113 | – | 997 | – |
| Muc68Ca | 2 | 4128 | – | 2306 | – |
| CG32121 | 1 | 5108 | – | 1191 | – |
| CG30427 | 1 | 16691 | – | 9441 | – |
| CG30427 | 2 | 14690 | – | 4980 | – |
| CG30427 | 3 | 1768 | 7756 | 416 | 2566 |
| CG15484 | 1 | 3286 | 9959 | 1645 | 4936 |
| CG15484 | 2 | 5.29e5 | 4.84e5 | 2.44e5 | 3.21e5 |
| Trs23 | 1 | 2485 | 4887 | 925 | 2810 |
| mRpS29 | 1 | 5837 | – | 969 | – |
| CG14556 | 1 | 19785 | – | 14787 | – |
| Hrs | 1 | 17723 | – | 5600 | – |
| spab | 1 | 3648 | 8864 | 1321 | 4157 |
| CG12355 | 1 | 3576 | – | 1419 | – |
| CG12355 | 2 | 7545 | – | 2460 | – |
| Kal1 | 1 | 1120 | 4695 | 752 | 1298 |
| CG17744 | 1 | 2551 | 9446 | 1789 | 4065 |
| Or22c | 1 | 2087 | 5515 | 871 | 2474 |
| Efa6 | 1 | 2896 | – | 1139 | – |
| Efa6 | 2 | 21985 | – | 7632 | – |
| Efa6 | 3 | 26216 | – | 18220 | – |
| mod(mdg4) + pre-mod(mdg4)-Z + pre-mod(mdg4)-T | 1 | 1828 | – | 1001 | – |
| mod(mdg4) + pre-mod(mdg4)-Z + pre-mod(mdg4)-T | 2 | 38872 | – | 7761 | – |
| CG14829 | 1 | 1945 | 10153 | 1430 | 4800 |
| Cyp6a14 | 1 | 2272 | 4841 | 833 | 1866 |
| Dscam4 | 1 | 2723 | – | 470 | – |
| Dscam4 | 2 | 3805 | – | 1715 | – |
| Dscam4 | 3 | 1857 | 7520 | 1082 | 2898 |
| Dscam4 | 4 | 1254 | 4736 | 891 | 2124 |
| Dscam4 | 5 | 1734 | 9880 | 1456 | 4448 |
| CG32117 | 1 | 5.66e5 | 5.37e5 | 3.03e5 | 2.20e5 |
| cue | 1 | 16256 | – | 4199 | – |
| CG13585 | 1 | 3412 | 9872 | 1107 | 4129 |
| DAT | 1 | 7277 | – | 2803 | – |
| Tbcb | 1 | 13142 | – | 5404 | – |
| ham | 1 | 18983 | – | 9188 | – |
| ham | 2 | 2042 | 6547 | 625 | 2486 |
| ham | 3 | 4148 | 10605 | 1017 | 4242 |
| ham | 4 | 3987 | 13601 | 800 | 5088 |
| CG11537 | 1 | 8071 | – | 1509 | – |
| Gpxl | 1 | 7581 | – | 2401 | – |
| CG15025 | 1 | 14042 | – | 2896 | – |
| kibra | 1 | 9073 | – | 1761 | – |
| kibra | 2 | 10497 | – | 509 | – |
| CG13607 | 1 | 25626 | – | 19641 | – |
| Grl36b | 1 | 19876 | – | 8835 | – |
| CG11997 | 1 | 14097 | – | 4016 | – |
| PIG-A | 1 | 11332 | – | 3169 | – |
| CG13226 | 1 | 5968 | – | 1786 | – |
| rl | 1 | 7730 | – | 3904 | – |
| rl | 2 | 11202 | – | 8116 | – |
| rl | 3 | 5.78e5 | 5.01e5 | 2.47e5 | 1.93e5 |
| CG31125 | 1 | 3527 | – | 1760 | – |
| wda | 1 | 25320 | – | 22096 | – |
| wda | 2 | 6.58e5 | 7.20e5 | 1.31e5 | 1.80e5 |
| CG43190 | 1 | 13616 | – | 11043 | – |
| CG14050 | 1 | 11651 | – | 11645 | – |
| Zpr1 | 1 | 3299 | 5079 | 875 | 1664 |
| CG14397 | 1 | 3265 | 9045 | 784 | 2660 |
